Drawing on patent publication US7488592, this text covers binding for three molecules.

Experiment [1] deals with T1, FLAG-Erf2p (yeast (S. cerevisiae)) (UniProt Q06551).
T1 sequence: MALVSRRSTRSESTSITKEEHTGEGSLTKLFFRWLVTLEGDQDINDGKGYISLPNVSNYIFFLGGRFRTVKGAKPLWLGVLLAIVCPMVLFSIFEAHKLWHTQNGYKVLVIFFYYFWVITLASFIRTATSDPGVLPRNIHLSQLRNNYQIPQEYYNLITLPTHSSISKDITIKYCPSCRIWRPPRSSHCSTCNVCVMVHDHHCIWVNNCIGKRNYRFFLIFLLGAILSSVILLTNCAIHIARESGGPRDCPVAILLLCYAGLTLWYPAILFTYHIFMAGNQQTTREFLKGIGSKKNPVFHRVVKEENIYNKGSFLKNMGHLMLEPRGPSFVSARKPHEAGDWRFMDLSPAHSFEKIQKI
Description: co-purification on anti-FLAG antibody-agarose beads from yeast extracts.

Experiment [2] addresses T2, GST-Erf4p (yeast (S. cerevisiae)) (UniProt P41912).
T2 sequence: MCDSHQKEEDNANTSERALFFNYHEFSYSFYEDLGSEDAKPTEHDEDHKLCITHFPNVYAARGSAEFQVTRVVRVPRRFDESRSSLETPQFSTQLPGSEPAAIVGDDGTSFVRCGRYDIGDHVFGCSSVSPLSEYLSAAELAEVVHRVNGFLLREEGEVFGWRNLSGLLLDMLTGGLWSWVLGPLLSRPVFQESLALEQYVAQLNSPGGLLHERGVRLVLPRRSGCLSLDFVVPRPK
Description: co-purification on GSH-agarose from E. coli extracts, immunoblot (FIG. 7). (A western blot detects proteins with antibodies after separation by electrophoresis.)

Experiment [3] concerns the target T2, GST-Erf4p (yeast (S. cerevisiae)). The experiment can be described thus: co-purification on GSH-agarose from yeast extracts, immunoblot.
Experiment [4] has the same target. Description: co-purification with GST-Erf4p.

Positions count from the first letter of the chain named. Names and notes keep the numbering of the source. Results are given in words; binding and its absence hold for the method and conditions named. In cells and extracts the contact can be indirect. Some binding calls cover weakened binding; strength is not graded here. Sequences can lack the tags named with a protein.

B1: GST-Erf4p (protein, not shown: a dimerising Fc or GST)
chain: T2 sequence
In the case of B1, the binding result in experiment [1] is on record as “binds”.

B2: FLAG-Erf2(H201A)p (enzyme, not shown: small tags and cut ends)
chain: T1 sequence with H201A
For B2, the binding entry in experiment [2] and in experiment [3] was “binds” throughout.

B3: FLAG-Erf2(C203S)p (enzyme, not shown: small tags and cut ends)
chain: T1 sequence with C203S
With B3, the binding entry in experiment [4] and in experiment [2] was “binds” each time.
